Experimental data: patent EP4755888A1 (ILAb Co., Ltd., priority 2023, dated 2025)
Some of these results come from one statement about several compounds together.

system: PD-1/PD-L1; assay: PD-1/PD-L1 blockade bioassay at the cellular level (PD-L1 aAPC/CHO-K1 cells + PD-1 Effector T cells, luciferase); type: cell-based, human; settings: summary of Table 5
Protocol: In order to evaluate the effect of the compounds of the present invention, synthesized according to the above Preparation Examples, on blocking signal transduction between PD-1/PD-L1-expressing cells, a PD-1/PD-L1 blockade bioassay was conducted as described below.
Specifically, PD-L1 aAPC/CHO-K1 cells engineered to express human PD-L1 were seeded into a 96-well white plate and cultured for one day. On the following day, the compounds were prepared in a 96-well plate by serial dilution at concentrations starting from 10 µM and 5 µM, followed by 1/4 dilutions to obtain a total of ten concentrations. The culture medium in the plate seeded with the PD-L1 aAPC/CHO-K1 cell line was removed, and 40 µL of each prepared compound solution was added to a 96-well plate. Thereafter, 40 µL of PD-1 Effector T cell line engineered to express human PD-1 was additionally added, and then cultured for 6 hours. After 6 hours, 80 µL of Bio-Glo luciferase buffer was added to each well, followed by incubation at room temperature for 10 minutes, and luminescence was measured using a microplate reader.

| SMILES | inhibition of the interaction between PD-1/PD-L1 molecules at the cellular level (in words) |
| --- | --- |
| O=C(Nc1cccc(-c2cccc(NC(=O)c3cc4n(n3)CCC[C@H]4NCCO)c2Cl)c1Cl)c1ccc(CNCCO)cn1 [Compound 207, (R)-N-(2,2'-dichloro-3'-(5-(((2-hydroxyethyl)amino)methyl)picolinamido)-[1,1'-biphenyl]-3-yl)-4-((2-hydroxyethyl)amino)-4,5,6,7-tetrahydropyrazolo[1,5-a]pyridine-2-carboxamide] | effectively inhibit the interaction between PD-1/PD-L1 molecules at the nanomolar level |
| Cc1c(NC(=O)c2cc3n(n2)CCC[C@H]3N2CC[C@@H](C(=O)O)C2)cccc1-c1cccc(Nc2nc(C(F)F)nc3cc(CN4CC[C@@H](O)C4)cnc23)c1C [Compound 211, (R)-1-((R)-2-((3'-((2-(difluoromethyl)-7-(((R)-3-hydroxypyrrolidin-1-yl)methyl)pyrido[3,2-d]pyrimidin-4-yl)amino)-2,2'-dimethyl-[1,1'-biphenyl]-3-yl)carbamoyl)-4,5,6,7-tetrahydropyrazolo[1,5-a]pyridin-4-yl)pyrrolidine-3-carboxylic acid] | effectively inhibit the interaction between PD-1/PD-L1 molecules at the nanomolar level |
| O=C(O)CN[C@@H]1CCCn2nc(C(=O)Nc3cccc(-c4cccc(Nc5nccc6cc(CN7CC[C@@H](O)C7)cnc56)c4Cl)c3Cl)cc21 [Compound 219, 2-(((R)-2-((2,2'-dichloro-3'-((3-(((R)-3-hydroxypyrrolidin-1-yl)methyl)-1,7-naphthyridin-8-yl)amino)-[1,1'-biphenyl]-3-yl)carbamoyl)-4,5,6,7-tetrahydropyrazolo[1,5-a]pyridin-4-yl)amino)acetic acid] | effectively inhibit the interaction between PD-1/PD-L1 molecules at the nanomolar level |
| Cc1c(NC(=O)c2cc3n(n2)CCC[C@H]3NCC(=O)O)cccc1-c1cccc(Nc2nc(C(F)F)nc3cc(CN4CC[C@@H](O)C4)cnc23)c1C [Compound 213, 2-(((R)-2-((3'-((2-(difluoromethyl)-7-(((R)-3-hydroxypyrrolidin-1-yl)methyl)pyrido[3,2-d]pyrimidin-4-yl)amino)-2,2'-dimethyl-[1,1'-biphenyl]-3-yl)carbamoyl)-4,5,6,7-tetrahydropyrazolo[1,5-a]pyridin-4-yl)amino)acetic acid] | effectively inhibit the interaction between PD-1/PD-L1 molecules at the nanomolar level |
| O=C(O)CN[C@@H]1CCCn2nc(C(=O)Nc3cccc(-c4cccc(NC(=O)c5ccc(CNCCO)cn5)c4Cl)c3Cl)cc21 [Compound 221, (R)-2-((2-((2,2'-dichloro-3'-(5-(((2-hydroxyethyl)amino)methyl)picolinamido)-[1,1'-biphenyl]-3-yl)carbamoyl)-4,5,6,7-tetrahydropyrazolo[1,5-a]pyridin-4-yl)amino)acetic acid] | effectively inhibit the interaction between PD-1/PD-L1 molecules at the nanomolar level |
| Cc1c(NC(=O)c2cc3n(n2)CCC[C@@H]3NCC(=O)O)cccc1-c1cccc(Nc2nc(C(F)F)nc3cc(CN4CC[C@@H](O)C4)cnc23)c1C [Compound 212, 2-(((S)-2-((3'-((2-(difluoromethyl)-7-(((R)-3-hydroxypyrrolidin-1-yl)methyl)pyrido[3,2-d]pyrimidin-4-yl)amino)-2,2'-dimethyl-[1,1'-biphenyl]-3-yl)carbamoyl)-4,5,6,7-tetrahydropyrazolo[1,5-a]pyridin-4-yl)amino)acetic acid] | effectively inhibit the interaction between PD-1/PD-L1 molecules at the nanomolar level |
| O=C(O)CN[C@H]1CCCn2nc(C(=O)Nc3cccc(-c4cccc(NC(=O)c5ccc(CNCCO)cn5)c4Cl)c3Cl)cc21 [Compound 220, (S)-2-((2-((2,2'-dichloro-3'-(5-(((2-hydroxyethyl)amino)methyl)picolinamido)-[1,1'-biphenyl]-3-yl)carbamoyl)-4,5,6,7-tetrahydropyrazolo[1,5-a]pyridin-4-yl)amino)acetic acid] | effectively inhibit the interaction between PD-1/PD-L1 molecules at the nanomolar level |
| Cc1c(NC(=O)c2cc3n(n2)CCC[C@@H]3N2CC[C@@H](C(=O)O)C2)cccc1-c1cccc(Nc2nc(C(F)F)nc3cc(CN4CC[C@@H](O)C4)cnc23)c1C [Compound 210, (R)-1-((S)-2-((3'-((2-(difluoromethyl)-7-(((R)-3-hydroxypyrrolidin-1-yl)methyl)pyrido[3,2-d]pyrimidin-4-yl)amino)-2,2'-dimethyl-[1,1'-biphenyl]-3-yl)carbamoyl)-4,5,6,7-tetrahydropyrazolo[1,5-a]pyridin-4-yl)pyrrolidine-3-carboxylic acid] | effectively inhibit the interaction between PD-1/PD-L1 molecules at the nanomolar level |
| O=C(O)CN[C@@H]1CCCn2nc(C(=O)Nc3cccc(-c4cccc(NC(=O)c5ccc(CN6CC[C@@H](O)C6)cn5)c4Cl)c3Cl)cc21 [Compound 223, 2-(((R)-2-((2,2'-dichloro-3'-(5-(((R)-3-hydroxypyrrolidin-1-yl)methyl)picolinamido)-[1,1'-biphenyl]-3-yl)carbamoyl)-4,5,6,7-tetrahydropyrazolo[1,5-a]pyridin-4-yl)amino)acetic acid] | effectively inhibit the interaction between PD-1/PD-L1 molecules at the nanomolar level |
